Data as given in PubChem BioAssay AID493246 (Drosophila RNAi Screening Center, 2011)
In all, the deposit lists about 21,000 reagents; shown is a random part of those with a known target gene and a result. Over the whole deposit, 429 (2%) were called active. 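Values are raw and not normalised between plates; calls rest on per-plate z-scores that were not deposited.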 A number with no mark means an inactive call. Reagents against one gene are numbered here. Names joined by + are all predicted targets of the reagent. The record does not give: the amount of reagent, the time to read-out.

Test: 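Genome-wide search for dsRNAs that reduce cell number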 (primary screen)
Cells: Drosophila Kc and S2R+ cells
Reagent: long dsRNA against Drosophila genes
Detection: 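Cell number per well after knock-down, printed as raw plate values; calls were based on per-plate z-scores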
Direction: Kc cell number and S2R+ cell number: higher = more cells remaining
Call rule: 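Counted as a hit if cell number falls by a z-score of at least 3 within its plate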

target | dsRNA no. | Kc cell number, rep 1 | Kc cell number, rep 2 | S2R+ cell number, rep 1 | S2R+ cell number, rep 2
CG2983 (GeneID 33485) | 1 | 1.52e6 | 1.78e6 | 1.10e6 | 1.15e6
Hecw (GeneID 31905) | 1 | 1.54e6 | 1.56e6 | 1.03e6 | 1.23e6
Hecw (GeneID 31905) | 2 | 1.54e6 | 1.50e6 | 1.05e6 | 1.18e6
CG3655 (GeneID 31056) | 1 | 1.41e6 | 1.58e6 | 1.10e6 | 1.12e6
CG3655 (GeneID 31056) | 2 | 1.55e6 | 1.53e6 | 1.08e6 | 1.21e6
CG3655 (GeneID 31056) | 3 | 1.48e6 | 1.49e6 | 1.06e6 | 1.14e6
Ssl2 (GeneID 43424) | 1 | 1.55e6 | 1.60e6 | 1.11e6 | 1.46e6
Meics (GeneID 39539) | 1 | 1.74e6 | 1.68e6 | 1.38e6 | 1.46e6
CG4770 (GeneID 42375) | 1 | 1.16e6 | 1.17e6 | 1.16e6 | 1.25e6
CG14811 (GeneID 31132) | 1 | 1.51e6 | 1.42e6 | 9.98e5 | 1.12e6
Arc1 (GeneID 36595) | 1 | 1.41e6 | 1.46e6 | 1.05e6 | 1.14e6
ReepA (GeneID 37643) | 1 | 1.34e6 | 1.42e6 | 1.07e6 | 1.16e6
CG32037 (GeneID 326183) | 1 | 1.39e6 | 1.28e6 | 1.23e6 | 1.34e6
CG17625 (GeneID 42678) | 1 | 1.56e6 | 1.58e6 | 9.39e5 | 1.11e6

Next part (4 carried over from the part before).
target | dsRNA no. | Kc cell number, rep 1 | Kc cell number, rep 2 | S2R+ cell number, rep 1 | S2R+ cell number, rep 2
Arc1 (GeneID 36595) | 1 | 1.41e6 | 1.46e6 | 1.05e6 | 1.14e6
ReepA (GeneID 37643) | 1 | 1.34e6 | 1.42e6 | 1.07e6 | 1.16e6
CG32037 (GeneID 326183) | 1 | 1.39e6 | 1.28e6 | 1.23e6 | 1.34e6
CG17625 (GeneID 42678) | 1 | 1.56e6 | 1.58e6 | 9.39e5 | 1.11e6
cona (GeneID 42213) | 1 | 1.23e6 | 1.20e6 | 1.06e6 | 1.17e6
Hph (GeneID 40633) | 1 | 1.71e6 | 1.75e6 | 1.18e6 | 1.28e6
Hph (GeneID 40633) | 2 | 1.73e6 | 1.85e6 | 1.32e6 | 1.49e6
kl-3 (retired record) (GeneID 5740653) | 1 | 1.36e6 | 1.47e6 | 1.10e6 | 1.12e6
kl-3 (retired record) (GeneID 5740653) | 2 | 1.54e6 | 1.55e6 | 1.09e6 | 1.30e6
kl-3 (retired record) (GeneID 5740653) | 3 | 1.50e6 | 1.69e6 | 1.05e6 | 1.18e6
CG15423 (GeneID 33616) | 1 | 1.62e6 | 1.52e6 | 1.18e6 | 1.35e6
sNPF (GeneID 35286) | 1 | 1.45e6 | 1.57e6 | 1.34e6 | 3.41e5
Axs (GeneID 32645) | 1 | 1.55e6 | 1.50e6 | 1.13e6 | 1.26e6
CG4596 (GeneID 41312) | 1 | 1.72e6 | 1.91e6 | 1.48e6 | 1.62e6
CG9899 (GeneID 37676) | 1 | 1.59e6 | 1.68e6 | 1.43e6 | 1.70e6
scpr-B (GeneID 41357) | 1 | 1.49e6 | 1.52e6 | 1.20e6 | 1.26e6
CG14607 (GeneID 40869) | 1 | 1.63e6 | 1.77e6 | 1.43e6 | 1.58e6
CG17672 (GeneID 4379911) | 1 | 2.64e5 (active) | 6.56e5 | 4.59e5 | 5.78e5
CG17672 (GeneID 4379911) | 2 | 1.40e6 | 1.47e6 | 1.37e6 | 1.21e6
CG13231 (GeneID 36169) | 1 | 1.57e6 | 1.65e6 | 1.23e6 | 1.33e6
sl (GeneID 32601) | 1 | 5.79e5 | – | 8.37e5 | –
CG40498 (GeneID 3354890) | 1 | 6.16e5 | – | 8.47e5 | –
CG1889 + CG43386 | 1 | 1.62e6 | 1.49e6 | 1.09e6 | 1.22e6
spdi (GeneID 31004) | 1 | 5.39e5 | – | 7.89e5 | –
spdi (GeneID 31004) | 2 | 1.50e6 | 1.51e6 | 9.44e5 | 1.08e6
CG13587 (GeneID 37930) | 1 | 1.53e6 | 1.61e6 | 1.27e6 | 1.41e6
CG33332 (GeneID 2768669) | 1 | 1.39e6 | 1.47e6 | 1.24e6 | 1.39e6
CG4239 (GeneID 32606) | 1 | 6.54e5 | – | 9.54e5 | –
CG17807 (GeneID 37585) | 1 | 1.25e6 | 1.35e6 | 1.24e6 | 1.12e6
CG33775 (GeneID 3772054) | 1 | 1.57e6 | 1.60e6 | 1.05e6 | 1.22e6
